Measurements: publication PMC11348242
Results are given in words; binding and its absence hold for the method and conditions named. In cells and extracts the contact can be indirect. Some entries that bind do so weakly or less than the wild type.

Amino acid sequences for entries named in this document (tags omitted).
UniProt P12956: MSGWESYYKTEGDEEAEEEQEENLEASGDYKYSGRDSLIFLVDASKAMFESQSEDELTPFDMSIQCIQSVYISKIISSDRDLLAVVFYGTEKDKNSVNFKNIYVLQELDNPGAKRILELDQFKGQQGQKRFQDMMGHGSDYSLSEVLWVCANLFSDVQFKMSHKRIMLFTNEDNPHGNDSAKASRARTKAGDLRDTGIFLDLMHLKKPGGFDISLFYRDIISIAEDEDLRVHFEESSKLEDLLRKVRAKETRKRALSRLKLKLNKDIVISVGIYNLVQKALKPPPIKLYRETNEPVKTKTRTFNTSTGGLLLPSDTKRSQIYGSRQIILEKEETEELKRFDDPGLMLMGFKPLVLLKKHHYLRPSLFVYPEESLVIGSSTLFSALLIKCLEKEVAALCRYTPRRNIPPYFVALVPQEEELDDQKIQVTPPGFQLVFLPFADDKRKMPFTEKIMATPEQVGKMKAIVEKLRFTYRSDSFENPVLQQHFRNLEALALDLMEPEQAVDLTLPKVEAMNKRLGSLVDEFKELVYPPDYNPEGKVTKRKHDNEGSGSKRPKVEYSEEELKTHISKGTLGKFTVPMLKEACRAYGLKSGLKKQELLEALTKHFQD
UniProt P13010: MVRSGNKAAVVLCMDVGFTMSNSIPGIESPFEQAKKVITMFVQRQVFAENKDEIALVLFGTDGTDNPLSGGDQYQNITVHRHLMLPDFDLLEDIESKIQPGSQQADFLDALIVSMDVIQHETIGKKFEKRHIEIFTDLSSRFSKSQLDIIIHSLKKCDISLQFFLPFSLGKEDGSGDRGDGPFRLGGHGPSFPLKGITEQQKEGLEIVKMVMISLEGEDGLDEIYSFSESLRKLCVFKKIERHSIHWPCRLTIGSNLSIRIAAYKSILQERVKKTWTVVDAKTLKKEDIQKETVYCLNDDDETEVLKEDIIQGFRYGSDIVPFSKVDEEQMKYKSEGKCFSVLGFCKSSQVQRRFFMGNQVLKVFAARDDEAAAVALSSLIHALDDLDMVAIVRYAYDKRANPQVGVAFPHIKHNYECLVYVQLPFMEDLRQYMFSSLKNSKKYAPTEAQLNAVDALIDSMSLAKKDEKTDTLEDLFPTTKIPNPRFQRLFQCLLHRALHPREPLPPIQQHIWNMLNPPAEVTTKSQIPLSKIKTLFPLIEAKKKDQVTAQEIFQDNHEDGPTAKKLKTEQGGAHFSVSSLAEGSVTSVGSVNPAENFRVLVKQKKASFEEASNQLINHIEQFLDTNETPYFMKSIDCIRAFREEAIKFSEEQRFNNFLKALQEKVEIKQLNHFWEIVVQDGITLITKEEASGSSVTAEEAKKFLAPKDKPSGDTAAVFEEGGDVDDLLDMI

Molecular target: T1, macrophage migration inhibitory factor (MIF) (human (endogenous in HeLa and HEK293)) (UniProt P14174)
T1 sequence: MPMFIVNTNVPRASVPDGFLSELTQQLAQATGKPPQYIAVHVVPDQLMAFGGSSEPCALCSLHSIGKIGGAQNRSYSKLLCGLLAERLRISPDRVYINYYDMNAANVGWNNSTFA
Assay: co-IP; HEK293 cells, with or without RSL3 (4 µM, 2 h); immunoprecipitation with MIF, Ku70 or Ku80 antibodies, then immunoblot; rabbit and mouse IgG as negative controls

| Substance | binding |
| --- | --- |
| Ku70 (from UniProt P12956 1-609) | binds |
| Ku80 (from UniProt P13010 1-732) | binds |
